Sequences of proteins named here, by UniProt entry; tags and fusion partners are left off. A change or cut given only in a name is not applied to a line headed by its entry. Residues count along the entry.
UniProt P02751, residues 32-2477: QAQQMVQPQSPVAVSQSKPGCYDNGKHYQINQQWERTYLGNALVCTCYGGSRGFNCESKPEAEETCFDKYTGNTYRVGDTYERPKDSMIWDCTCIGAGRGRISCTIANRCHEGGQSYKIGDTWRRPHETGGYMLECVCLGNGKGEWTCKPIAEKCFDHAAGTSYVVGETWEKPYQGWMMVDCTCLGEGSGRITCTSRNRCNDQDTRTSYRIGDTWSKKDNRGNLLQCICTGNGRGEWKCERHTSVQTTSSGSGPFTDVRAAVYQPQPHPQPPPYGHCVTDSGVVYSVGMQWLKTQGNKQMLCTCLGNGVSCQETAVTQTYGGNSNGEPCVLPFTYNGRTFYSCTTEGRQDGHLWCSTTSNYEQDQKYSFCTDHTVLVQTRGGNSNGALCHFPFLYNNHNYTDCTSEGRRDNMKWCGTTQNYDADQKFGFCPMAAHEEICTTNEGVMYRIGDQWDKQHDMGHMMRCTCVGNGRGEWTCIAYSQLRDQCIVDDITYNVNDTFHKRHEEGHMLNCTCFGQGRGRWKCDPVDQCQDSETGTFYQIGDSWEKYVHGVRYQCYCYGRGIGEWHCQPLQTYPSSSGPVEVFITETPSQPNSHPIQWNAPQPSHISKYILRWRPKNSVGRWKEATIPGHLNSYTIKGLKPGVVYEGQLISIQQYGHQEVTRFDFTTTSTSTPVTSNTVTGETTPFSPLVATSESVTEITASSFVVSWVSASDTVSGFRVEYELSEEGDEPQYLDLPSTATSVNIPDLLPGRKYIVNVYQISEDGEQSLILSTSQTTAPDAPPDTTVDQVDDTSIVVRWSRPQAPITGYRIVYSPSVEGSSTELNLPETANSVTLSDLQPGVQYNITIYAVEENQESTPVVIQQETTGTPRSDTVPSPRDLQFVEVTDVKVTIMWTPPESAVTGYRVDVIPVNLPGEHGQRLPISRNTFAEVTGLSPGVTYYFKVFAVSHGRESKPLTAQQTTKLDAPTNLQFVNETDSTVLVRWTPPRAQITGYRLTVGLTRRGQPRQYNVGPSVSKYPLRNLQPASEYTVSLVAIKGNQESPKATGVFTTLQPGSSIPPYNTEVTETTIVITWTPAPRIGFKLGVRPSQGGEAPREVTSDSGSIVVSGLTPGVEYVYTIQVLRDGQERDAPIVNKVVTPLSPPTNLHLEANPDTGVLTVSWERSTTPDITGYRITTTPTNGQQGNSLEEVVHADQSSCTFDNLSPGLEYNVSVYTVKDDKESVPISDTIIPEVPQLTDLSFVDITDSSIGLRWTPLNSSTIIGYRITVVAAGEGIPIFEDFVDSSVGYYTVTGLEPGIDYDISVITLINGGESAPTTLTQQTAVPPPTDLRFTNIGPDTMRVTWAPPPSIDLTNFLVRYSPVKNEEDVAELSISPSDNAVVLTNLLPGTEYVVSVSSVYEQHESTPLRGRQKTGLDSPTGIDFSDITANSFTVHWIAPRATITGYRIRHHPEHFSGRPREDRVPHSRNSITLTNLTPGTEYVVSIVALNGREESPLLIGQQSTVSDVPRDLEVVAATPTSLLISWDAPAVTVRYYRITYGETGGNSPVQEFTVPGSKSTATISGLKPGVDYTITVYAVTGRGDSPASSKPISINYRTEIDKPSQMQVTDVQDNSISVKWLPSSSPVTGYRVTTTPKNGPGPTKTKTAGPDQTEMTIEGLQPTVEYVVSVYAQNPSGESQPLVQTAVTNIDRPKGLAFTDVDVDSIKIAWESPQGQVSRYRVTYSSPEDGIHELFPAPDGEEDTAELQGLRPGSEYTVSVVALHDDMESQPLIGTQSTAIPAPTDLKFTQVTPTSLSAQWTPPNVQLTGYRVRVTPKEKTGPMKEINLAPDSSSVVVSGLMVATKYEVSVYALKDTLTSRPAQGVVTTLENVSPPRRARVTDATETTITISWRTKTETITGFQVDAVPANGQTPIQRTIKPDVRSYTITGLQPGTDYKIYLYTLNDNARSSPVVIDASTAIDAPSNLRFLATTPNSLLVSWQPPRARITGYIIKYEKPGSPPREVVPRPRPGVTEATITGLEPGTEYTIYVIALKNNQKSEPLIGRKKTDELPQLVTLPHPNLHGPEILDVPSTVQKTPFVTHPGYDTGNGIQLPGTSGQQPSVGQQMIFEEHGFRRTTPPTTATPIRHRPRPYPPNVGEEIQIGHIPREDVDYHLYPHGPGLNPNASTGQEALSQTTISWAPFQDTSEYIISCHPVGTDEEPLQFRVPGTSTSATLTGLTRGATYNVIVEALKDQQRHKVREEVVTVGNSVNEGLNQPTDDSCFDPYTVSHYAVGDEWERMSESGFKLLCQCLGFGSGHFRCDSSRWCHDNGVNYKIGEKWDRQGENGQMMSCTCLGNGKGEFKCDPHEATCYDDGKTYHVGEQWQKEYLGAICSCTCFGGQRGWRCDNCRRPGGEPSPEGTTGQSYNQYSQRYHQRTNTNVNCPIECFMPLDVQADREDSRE
UniProt P12830: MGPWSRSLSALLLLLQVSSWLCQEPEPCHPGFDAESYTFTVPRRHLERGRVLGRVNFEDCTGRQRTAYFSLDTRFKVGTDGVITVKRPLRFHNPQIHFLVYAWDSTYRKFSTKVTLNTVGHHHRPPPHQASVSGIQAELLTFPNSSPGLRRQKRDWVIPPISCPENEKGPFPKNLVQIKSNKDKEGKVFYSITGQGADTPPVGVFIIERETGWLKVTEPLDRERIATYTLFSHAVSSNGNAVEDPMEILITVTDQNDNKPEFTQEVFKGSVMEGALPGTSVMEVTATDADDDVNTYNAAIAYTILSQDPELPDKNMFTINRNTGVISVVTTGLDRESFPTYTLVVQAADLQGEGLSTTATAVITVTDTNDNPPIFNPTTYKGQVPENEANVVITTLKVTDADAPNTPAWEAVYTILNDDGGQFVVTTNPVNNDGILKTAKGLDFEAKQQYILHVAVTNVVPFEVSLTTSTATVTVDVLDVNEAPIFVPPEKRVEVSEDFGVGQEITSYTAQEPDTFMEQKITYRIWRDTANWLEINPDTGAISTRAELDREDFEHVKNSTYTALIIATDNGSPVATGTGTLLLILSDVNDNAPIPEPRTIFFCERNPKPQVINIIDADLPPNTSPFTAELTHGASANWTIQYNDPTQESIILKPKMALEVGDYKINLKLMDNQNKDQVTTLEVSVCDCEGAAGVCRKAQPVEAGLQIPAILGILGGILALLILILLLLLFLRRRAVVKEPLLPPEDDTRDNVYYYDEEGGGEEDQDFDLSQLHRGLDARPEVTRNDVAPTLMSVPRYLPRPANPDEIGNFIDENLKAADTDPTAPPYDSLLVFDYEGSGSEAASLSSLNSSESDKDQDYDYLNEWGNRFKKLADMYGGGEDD
UniProt P19022: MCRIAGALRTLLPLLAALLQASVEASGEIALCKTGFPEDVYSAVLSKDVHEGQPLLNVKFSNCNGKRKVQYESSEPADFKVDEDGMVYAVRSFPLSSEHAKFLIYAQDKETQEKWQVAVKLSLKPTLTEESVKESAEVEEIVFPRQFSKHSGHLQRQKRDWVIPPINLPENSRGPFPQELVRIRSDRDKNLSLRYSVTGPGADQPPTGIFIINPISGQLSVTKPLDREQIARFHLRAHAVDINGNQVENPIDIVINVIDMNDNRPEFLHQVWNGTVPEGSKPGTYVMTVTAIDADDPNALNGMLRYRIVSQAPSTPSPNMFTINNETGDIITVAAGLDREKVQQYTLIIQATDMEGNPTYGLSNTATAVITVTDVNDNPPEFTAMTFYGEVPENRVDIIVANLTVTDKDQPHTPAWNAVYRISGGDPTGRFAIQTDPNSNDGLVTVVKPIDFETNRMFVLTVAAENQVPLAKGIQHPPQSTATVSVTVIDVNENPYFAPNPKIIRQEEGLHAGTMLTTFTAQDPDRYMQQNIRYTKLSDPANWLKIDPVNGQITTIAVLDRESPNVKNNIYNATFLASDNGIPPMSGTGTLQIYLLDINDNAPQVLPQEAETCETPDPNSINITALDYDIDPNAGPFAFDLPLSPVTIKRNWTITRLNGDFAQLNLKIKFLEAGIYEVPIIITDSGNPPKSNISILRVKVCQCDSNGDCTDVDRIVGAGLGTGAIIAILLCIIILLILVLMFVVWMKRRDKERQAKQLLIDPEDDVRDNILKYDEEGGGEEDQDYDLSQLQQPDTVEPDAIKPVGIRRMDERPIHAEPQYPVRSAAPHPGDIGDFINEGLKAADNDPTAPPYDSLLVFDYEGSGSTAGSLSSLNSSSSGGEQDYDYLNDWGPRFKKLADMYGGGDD
UniProt O60911: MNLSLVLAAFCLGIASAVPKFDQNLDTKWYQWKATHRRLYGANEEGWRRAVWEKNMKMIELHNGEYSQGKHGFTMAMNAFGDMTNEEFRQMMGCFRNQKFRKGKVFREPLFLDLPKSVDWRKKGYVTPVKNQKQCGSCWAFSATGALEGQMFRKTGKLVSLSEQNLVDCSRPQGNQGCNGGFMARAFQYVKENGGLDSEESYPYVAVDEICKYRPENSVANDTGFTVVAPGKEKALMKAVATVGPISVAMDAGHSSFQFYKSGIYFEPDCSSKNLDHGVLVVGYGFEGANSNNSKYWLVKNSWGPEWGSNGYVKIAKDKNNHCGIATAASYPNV

According to PMC10756122:

Legend:
[1] = target: fibronectin, endogenous (human (endogenous in A549 and NCI-H1975)) (UniProt P02751); assay: co-IP; lysate (RIPA) of A549 cells stably expressing CTSV-HA; IP with anti-fibronectin, anti-E-cadherin and anti-N-cadherin antibodies; Western blotting
[2] = target: E-cadherin, endogenous (human (endogenous in A549 and NCI-H1975)) (UniProt P12830); assay: as above
[3] = target: N-cadherin, endogenous (human (endogenous in A549 and NCI-H1975)) (UniProt P19022); assay: as above
[4] = target: Cathepsin V (CTSV), endogenous (human (endogenous in A549)) (UniProt O60911); assay: co-IP; endogenous proteins, A549 lysate (RIPA); IP with antibody and control IgG; immunoblotting

Row | Substance | binding [1] | binding [2] | binding [3] | binding [4]
1 | CTSV-HA (HA-tagged Cathepsin V) (from UniProt O60911) (enzyme) | binds | binds | binds | –
2 | E-cadherin, endogenous (from UniProt P12830) | – | – | – | binds
3 | fibronectin, endogenous (from UniProt P02751 32-2477) | – | – | – | binds

Results are given in words; binding and its absence hold for the method and conditions named. Binding seen in cells or lysates may run through a third protein. A result given as binding can be weak or reduced; the word gives no strength.
